Test results published in the supplement of paper PMC10849652.
The list shows a part of the results.

The chains behind the UniProt entries cited, without tags or fusion partners. Where a name states a change or a piece, a line headed by the entry shows the natural chain unless it says otherwise.
UniProt P50461: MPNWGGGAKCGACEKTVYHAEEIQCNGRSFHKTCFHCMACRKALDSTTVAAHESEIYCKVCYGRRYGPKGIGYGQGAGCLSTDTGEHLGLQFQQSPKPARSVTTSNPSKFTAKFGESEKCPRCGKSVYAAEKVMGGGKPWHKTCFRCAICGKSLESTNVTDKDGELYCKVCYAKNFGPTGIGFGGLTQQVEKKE
UniProt Q15438: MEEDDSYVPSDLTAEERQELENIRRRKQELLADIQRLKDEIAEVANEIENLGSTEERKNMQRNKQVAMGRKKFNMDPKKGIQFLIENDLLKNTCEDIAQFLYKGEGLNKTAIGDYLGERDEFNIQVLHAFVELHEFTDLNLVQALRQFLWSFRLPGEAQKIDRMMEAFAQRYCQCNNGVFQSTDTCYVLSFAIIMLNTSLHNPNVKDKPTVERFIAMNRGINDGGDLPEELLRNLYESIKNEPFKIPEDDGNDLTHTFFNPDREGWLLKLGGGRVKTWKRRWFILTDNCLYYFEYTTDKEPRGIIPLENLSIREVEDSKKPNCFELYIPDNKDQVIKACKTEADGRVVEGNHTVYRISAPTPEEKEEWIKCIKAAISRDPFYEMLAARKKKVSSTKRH
UniProt Q9UBX1: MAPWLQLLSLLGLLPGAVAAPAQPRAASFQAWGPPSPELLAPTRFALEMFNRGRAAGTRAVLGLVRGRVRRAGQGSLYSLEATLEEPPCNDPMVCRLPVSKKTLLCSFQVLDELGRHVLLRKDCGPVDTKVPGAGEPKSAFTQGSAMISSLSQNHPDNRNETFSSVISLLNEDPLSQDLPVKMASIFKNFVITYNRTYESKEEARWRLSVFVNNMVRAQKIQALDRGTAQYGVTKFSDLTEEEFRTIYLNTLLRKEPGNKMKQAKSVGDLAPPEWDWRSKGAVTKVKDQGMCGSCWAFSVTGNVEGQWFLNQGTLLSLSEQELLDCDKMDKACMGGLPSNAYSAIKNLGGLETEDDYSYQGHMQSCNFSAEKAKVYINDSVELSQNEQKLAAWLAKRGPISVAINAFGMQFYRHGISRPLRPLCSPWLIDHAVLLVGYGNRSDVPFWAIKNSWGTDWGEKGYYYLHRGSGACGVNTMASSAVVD
UniProt Q5H9S7: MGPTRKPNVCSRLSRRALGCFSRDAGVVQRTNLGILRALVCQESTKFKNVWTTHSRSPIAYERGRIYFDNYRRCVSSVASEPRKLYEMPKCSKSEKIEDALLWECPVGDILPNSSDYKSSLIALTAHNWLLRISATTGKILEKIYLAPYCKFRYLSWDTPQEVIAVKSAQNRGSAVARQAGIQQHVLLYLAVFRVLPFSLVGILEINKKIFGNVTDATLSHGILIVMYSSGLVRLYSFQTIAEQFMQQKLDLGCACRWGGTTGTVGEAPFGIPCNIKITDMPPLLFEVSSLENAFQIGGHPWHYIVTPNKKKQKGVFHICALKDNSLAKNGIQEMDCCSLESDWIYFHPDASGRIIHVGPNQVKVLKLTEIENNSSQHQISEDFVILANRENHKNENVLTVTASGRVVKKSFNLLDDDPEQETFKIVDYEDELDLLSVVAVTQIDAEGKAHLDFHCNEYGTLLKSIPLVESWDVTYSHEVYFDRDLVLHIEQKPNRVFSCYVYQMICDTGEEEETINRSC
UniProt Q9NXE8: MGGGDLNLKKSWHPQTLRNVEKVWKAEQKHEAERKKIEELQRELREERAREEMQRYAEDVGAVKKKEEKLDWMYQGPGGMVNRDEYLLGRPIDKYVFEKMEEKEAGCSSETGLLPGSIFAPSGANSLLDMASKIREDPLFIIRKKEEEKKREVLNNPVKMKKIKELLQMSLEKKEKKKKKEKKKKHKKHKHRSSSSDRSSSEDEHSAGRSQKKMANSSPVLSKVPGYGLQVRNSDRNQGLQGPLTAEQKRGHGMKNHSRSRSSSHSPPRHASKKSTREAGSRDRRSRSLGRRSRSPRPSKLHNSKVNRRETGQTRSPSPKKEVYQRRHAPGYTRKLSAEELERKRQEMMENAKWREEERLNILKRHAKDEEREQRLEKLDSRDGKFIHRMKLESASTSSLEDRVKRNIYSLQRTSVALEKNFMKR
UniProt Q9HCG8: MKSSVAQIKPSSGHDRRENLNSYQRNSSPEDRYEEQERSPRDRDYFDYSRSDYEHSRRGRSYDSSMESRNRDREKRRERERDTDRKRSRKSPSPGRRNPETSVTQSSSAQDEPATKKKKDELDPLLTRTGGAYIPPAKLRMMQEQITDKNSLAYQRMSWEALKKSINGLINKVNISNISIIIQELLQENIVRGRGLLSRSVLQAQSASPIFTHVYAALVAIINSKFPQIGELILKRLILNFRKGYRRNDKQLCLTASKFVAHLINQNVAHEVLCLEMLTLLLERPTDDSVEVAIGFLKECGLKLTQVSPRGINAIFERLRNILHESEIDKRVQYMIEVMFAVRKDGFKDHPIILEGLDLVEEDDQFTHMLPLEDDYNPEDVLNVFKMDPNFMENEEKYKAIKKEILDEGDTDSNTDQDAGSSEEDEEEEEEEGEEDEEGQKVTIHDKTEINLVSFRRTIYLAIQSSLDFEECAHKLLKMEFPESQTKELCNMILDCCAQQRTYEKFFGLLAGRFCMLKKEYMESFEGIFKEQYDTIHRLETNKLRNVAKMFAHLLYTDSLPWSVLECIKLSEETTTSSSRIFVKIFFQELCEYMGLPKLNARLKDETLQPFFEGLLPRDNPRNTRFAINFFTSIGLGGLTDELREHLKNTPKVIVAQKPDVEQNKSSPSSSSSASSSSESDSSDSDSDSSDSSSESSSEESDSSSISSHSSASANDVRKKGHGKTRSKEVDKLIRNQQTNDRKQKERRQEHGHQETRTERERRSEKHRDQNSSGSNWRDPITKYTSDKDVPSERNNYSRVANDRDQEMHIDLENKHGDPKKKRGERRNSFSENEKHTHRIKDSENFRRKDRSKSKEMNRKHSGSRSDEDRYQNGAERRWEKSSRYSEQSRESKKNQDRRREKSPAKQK
UniProt Q7LFL8: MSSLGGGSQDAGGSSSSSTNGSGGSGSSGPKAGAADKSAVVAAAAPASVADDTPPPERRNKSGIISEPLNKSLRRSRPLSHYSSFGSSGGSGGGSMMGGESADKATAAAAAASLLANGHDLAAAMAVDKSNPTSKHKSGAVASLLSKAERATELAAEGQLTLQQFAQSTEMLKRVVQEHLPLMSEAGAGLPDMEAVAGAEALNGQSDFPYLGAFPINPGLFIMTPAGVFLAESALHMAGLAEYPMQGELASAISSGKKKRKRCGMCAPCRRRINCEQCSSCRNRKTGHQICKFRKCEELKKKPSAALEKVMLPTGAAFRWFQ
UniProt O95715: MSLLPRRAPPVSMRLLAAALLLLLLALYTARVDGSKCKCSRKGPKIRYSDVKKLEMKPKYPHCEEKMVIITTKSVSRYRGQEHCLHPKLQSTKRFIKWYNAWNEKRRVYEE
UniProt Q9BWK5: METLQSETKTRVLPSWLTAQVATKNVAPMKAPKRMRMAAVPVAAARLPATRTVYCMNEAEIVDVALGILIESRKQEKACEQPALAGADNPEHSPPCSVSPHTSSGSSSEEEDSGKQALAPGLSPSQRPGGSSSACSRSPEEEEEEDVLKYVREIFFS
UniProt Q16527: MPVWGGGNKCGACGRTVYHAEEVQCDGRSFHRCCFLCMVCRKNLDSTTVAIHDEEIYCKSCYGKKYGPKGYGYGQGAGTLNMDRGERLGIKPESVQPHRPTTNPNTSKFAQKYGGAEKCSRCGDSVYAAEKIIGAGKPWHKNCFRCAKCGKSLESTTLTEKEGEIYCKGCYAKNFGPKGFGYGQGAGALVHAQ
UniProt Q6VVX0: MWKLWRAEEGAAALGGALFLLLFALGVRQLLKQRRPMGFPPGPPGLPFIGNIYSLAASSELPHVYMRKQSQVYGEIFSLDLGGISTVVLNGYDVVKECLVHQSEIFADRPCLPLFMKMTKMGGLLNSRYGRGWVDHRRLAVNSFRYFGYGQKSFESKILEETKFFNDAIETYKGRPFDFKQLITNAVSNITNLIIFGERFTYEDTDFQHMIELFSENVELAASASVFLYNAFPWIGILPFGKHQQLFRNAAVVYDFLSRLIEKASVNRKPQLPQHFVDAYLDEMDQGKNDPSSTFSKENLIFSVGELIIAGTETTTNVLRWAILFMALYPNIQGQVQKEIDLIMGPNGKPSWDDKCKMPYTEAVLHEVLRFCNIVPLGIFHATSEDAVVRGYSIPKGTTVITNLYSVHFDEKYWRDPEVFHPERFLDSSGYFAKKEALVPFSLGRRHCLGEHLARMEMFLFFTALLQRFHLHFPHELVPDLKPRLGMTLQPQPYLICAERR
UniProt P01036: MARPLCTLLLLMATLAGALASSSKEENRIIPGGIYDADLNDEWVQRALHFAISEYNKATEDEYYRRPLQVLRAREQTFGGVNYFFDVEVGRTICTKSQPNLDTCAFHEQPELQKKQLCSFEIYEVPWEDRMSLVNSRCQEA
UniProt Q9UJU6: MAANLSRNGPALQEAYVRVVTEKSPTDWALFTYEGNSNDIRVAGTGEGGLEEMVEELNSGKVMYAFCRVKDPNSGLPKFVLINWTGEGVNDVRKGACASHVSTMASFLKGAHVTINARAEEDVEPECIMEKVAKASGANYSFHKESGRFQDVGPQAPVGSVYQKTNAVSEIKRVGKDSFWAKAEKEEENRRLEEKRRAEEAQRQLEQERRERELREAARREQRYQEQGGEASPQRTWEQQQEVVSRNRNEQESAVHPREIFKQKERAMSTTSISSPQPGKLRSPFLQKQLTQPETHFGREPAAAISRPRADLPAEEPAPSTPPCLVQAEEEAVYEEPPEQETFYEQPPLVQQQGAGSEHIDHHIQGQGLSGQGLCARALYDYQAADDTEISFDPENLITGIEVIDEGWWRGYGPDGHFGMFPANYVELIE
UniProt Q07973: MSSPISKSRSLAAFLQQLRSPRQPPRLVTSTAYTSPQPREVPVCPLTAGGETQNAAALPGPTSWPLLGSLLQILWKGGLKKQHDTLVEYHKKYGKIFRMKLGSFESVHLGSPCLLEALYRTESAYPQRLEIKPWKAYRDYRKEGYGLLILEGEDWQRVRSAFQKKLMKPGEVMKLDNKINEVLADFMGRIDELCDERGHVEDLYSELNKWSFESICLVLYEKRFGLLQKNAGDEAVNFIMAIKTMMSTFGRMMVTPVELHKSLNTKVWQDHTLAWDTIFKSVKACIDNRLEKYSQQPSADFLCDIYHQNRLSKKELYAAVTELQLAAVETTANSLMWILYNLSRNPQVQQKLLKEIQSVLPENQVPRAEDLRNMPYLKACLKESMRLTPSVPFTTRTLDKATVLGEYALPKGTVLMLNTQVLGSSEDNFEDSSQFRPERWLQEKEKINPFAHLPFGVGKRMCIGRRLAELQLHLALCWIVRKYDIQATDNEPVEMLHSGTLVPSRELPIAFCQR
UniProt O43310: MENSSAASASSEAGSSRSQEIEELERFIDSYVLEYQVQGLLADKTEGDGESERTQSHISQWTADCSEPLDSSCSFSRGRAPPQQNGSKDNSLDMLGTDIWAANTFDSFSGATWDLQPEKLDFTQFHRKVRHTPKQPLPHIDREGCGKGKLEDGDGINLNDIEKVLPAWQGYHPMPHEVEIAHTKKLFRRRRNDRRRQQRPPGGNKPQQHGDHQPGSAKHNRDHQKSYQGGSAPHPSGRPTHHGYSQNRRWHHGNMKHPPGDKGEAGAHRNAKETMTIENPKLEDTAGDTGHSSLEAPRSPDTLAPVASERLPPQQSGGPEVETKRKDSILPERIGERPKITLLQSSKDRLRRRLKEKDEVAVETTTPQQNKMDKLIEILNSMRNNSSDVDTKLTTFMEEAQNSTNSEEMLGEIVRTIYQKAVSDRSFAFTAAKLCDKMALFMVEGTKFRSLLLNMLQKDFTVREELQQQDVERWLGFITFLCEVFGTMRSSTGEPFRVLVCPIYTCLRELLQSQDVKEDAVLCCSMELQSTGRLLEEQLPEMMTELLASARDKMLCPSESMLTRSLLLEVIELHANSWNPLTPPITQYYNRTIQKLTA
UniProt Q99418: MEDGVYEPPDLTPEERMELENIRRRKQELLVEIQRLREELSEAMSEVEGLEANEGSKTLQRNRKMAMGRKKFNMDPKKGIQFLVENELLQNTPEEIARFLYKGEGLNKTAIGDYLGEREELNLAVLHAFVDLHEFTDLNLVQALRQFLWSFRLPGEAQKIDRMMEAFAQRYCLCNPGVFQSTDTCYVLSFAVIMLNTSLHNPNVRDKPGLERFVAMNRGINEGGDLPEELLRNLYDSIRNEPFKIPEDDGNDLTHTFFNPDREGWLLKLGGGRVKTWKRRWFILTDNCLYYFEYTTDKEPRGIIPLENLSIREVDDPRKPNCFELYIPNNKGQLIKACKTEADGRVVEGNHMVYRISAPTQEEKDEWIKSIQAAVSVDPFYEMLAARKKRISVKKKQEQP
UniProt Q9GZU7: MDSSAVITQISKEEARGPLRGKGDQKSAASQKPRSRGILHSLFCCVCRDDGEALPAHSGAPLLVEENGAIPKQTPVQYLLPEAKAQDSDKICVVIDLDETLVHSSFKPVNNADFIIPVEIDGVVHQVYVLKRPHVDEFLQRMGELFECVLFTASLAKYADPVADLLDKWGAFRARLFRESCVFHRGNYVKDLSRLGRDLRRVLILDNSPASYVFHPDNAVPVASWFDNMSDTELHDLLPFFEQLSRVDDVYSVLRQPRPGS

Key:
Experiment in all cases: log2 fold change, soluble protein after heating vs DMSO (PISA); higher = thermal stabilisation; K562 cells, 10 uM, 30 min; active = over 0.2 and 3.5 SD of the protein, either way, in both replicates (recomputed)
sotrastaurin = compound: CN1CCN(c2nc(C3=C(c4c[nH]c5ccccc45)C(=O)NC3=O)c3ccccc3n2)CC1 [sotrastaurin]
Summary of the method: (§1)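 For each measurement, 10 μM compound was applied for 30 min to K562 cells at 2×10^6 cells/mL. Aliquots were heated for 3 min across 48°C-58°C, pooled, and extracted in PBS with 0.5% NP-40 at 4°C; the supernatant after 21,000xg for 90 min was soluble protein. This was quantified by TMTpro 16plex LC-MS/MS with channel sums equalised, and thermal stability was reported relative to control samples from duplicates, on a log2 fold-change scale.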

alvocidib = compound: CN1CC[C@H](c2c(O)cc(O)c3c(=O)cc(-c4ccccc4Cl)oc23)[C@H](O)C1 [alvocidib]
Summary of the method: as §1

Tubastatin A = compound: CN1CCc2c(c3ccccc3n2Cc2ccc(C(=O)NO)cc2)C1 [Tubastatin A]
Summary of the method: as §1

[1] = compound: CNC(=O)C1=CC=CC=C1NC2=NC(=NC=C2Cl)NC3=C(C=C(C=C3)N4CCOCC4)OC
Summary of the method: as §1

defactinib = compound: CNC(=O)c1ccc(Nc2ncc(C(F)(F)F)c(NCc3nccnc3N(C)S(C)(=O)=O)n2)cc1 [defactinib]
Summary of the method: as §1

rucaparib = compound: CNCc1ccc(-c2[nH]c3cc(F)cc4c3c2CCNC4=O)cc1 [rucaparib]
Summary of the method: as §1

encorafenib = compound: COC(=O)N[C@@H](C)CNc1nccc(-c2cn(C(C)C)nc2-c2cc(Cl)cc(NS(C)(=O)=O)c2F)n1 [encorafenib]
Summary of the method: as §1

[2] = compound: COC(=O)[C@H](CCSC)NC(=O)C1=C(C=C(C=C1)NC[C@H](CS)N)C2=CC=CC=C2
Summary of the method: as §1

[3] = compound: COC1=CC=C(C=C1)CN2C=CC3=C2C=C(C=C3)C(=O)NO
Summary of the method: as §1

filanesib = compound: CON(C)C(=O)N1N=C(c2cc(F)ccc2F)S[C@@]1(CCCN)c1ccccc1 [filanesib]
Summary of the method: as §1

zotarolimus = compound: CO[C@H]1C[C@@H]2CC[C@@H](C)[C@@](O)(O2)C(=O)C(=O)N2CCCC[C@H]2C(=O)O[C@H]([C@H](C)C[C@@H]2CC[C@H](n3cnnn3)[C@H](OC)C2)CC(=O)[C@H](C)/C=C(\C)[C@@H](O)[C@@H](OC)C(=O)[C@H](C)C[C@H](C)/C=C/C=C/C=C/1C [zotarolimus]
Summary of the method: as §1

idasanutlin = compound: COc1cc(C(=O)O)ccc1NC(=O)[C@@H]1N[C@@H](CC(C)(C)C)[C@](C#N)(c2ccc(Cl)cc2F)[C@H]1c1cccc(Cl)c1F [idasanutlin]
Summary of the method: as §1

alisertib = compound: COc1cc(Nc2ncc3c(n2)-c2ccc(Cl)cc2C(c2c(F)cccc2OC)=NC3)ccc1C(=O)O [alisertib]
Summary of the method: as §1

[4] = compound: COc1cc2nc(-c3cc(F)ccc3O)nc(N[C@@H]3CNC[C@H]3C(C)(C)O)c2cc1OC
Summary of the method: as §1

gefitinib = compound: COc1cc2ncnc(Nc3ccc(F)c(Cl)c3)c2cc1OCCCN1CCOCC1 [gefitinib]
Summary of the method: as §1

[5] = compound: COc1cccc2cc(-c3nc([C@H]4CC[C@H](C(=O)O)CC4)n4ncnc(N)c34)[nH]c12
Summary of the method: as §1

lapatinib = compound: CS(=O)(=O)CCNCc1ccc(-c2ccc3ncnc(Nc4ccc(OCc5cccc(F)c5)c(Cl)c4)c3c2)o1 [lapatinib]
Summary of the method: as §1

pictilisib = compound: CS(=O)(=O)N1CCN(Cc2cc3nc(-c4cccc5[nH]ncc45)nc(N4CCOCC4)c3s2)CC1 [pictilisib]
Summary of the method: as §1

saracatinib = compound: CN1CCN(CCOc2cc(OC3CCOCC3)c3c(Nc4c(Cl)ccc5c4OCO5)ncnc3c2)CC1 [saracatinib]
Summary of the method: as §1

[6] = compound: CNc1nc(-c2ccc3c(N)n[nH]c3c2)cc(N2C[C@@H](C(=O)NC3CCCCC3)CC[C@H]2C)n1
Summary of the method: as §1

Measured: log2 fold change

CSRP3 (UniProt P50461)
inactive: sotrastaurin -0.052 | alvocidib -0.013 | Tubastatin A -0.058 | [1] 0.009 | defactinib 0.131 | rucaparib -0.067 | encorafenib -0.049 | [2] 0.117 | [3] 0.056 | filanesib 0.02 | zotarolimus -0.027 | idasanutlin 0.046 | alisertib -0.031 | [4] 0.046 | gefitinib 0.054 | [5] 0.127 | lapatinib -0.02 | pictilisib 0.06

CYTH1 (UniProt Q15438)
inactive: saracatinib 0.129 | Tubastatin A 0.016 | defactinib -0.029 | rucaparib 0.105 | [6] 0.004 | encorafenib -0.088 | [2] -0.011 | idasanutlin -0.123 | alisertib 0.13 | [4] -0.115 | [5] 0.063 | lapatinib -0.093

CTSF (UniProt Q9UBX1)
inactive: [1] 0.138 | pictilisib -0.039

DCUN1D5 (UniProt Q9BTE7)
inactive: Tubastatin A 0.138 | defactinib -0.345 | [2] 0.012 | [3] -0.022 | idasanutlin 0.095 | alisertib 0.109 | [5] -0.039 | pictilisib 0

DCAF17 (UniProt Q5H9S7)
inactive: defactinib -0.01 | rucaparib -0.134 | encorafenib 0.023 | [2] -0.102

CTNNBL1 (UniProt Q8WYA6)
inactive: defactinib -0.513 | rucaparib 0.137 | encorafenib 0.121 | [2] -0.19 | [4] -0.008 | lapatinib -0.581

CWC25 (UniProt Q9NXE8)
inactive: sotrastaurin 0.006 | alvocidib 0.393 | Tubastatin A -0.036 | [1] -0.052 | rucaparib 0.026 | encorafenib 0.197 | [3] 0 | filanesib 0.404 | zotarolimus -0.071 | idasanutlin 0.329 | alisertib -0.021 | gefitinib -0.062 | [5] -0.097 | pictilisib -0.092

Quoted from the results shown (2 entries):
DCUN1D5 (UniProt Q9BTE7)
inactive: Tubastatin A 0.138 | defactinib -0.345 | [2] 0.012 | [3] -0.022 | idasanutlin 0.095 | alisertib 0.109 | [5] -0.039 | pictilisib 0

DCAF17 (UniProt Q5H9S7)
inactive: defactinib -0.01 | rucaparib -0.134 | encorafenib 0.023 | [2] -0.102

(listing goes on)

CWC22 (UniProt Q9HCG8)
inactive: [3] 0.035 | [4] -0.359 | lapatinib 0.216

DAPK2 isoform 2 (UniProt Q9UIK4)
inactive: sotrastaurin -0.019 | [3] -0.012 | filanesib 0.189 | alisertib -0.05 | [5] -0.091

DCP1B (UniProt Q8IZD4)
inactive: Tubastatin A 0.144

DAPK1 isoform 3 (UniProt P53355)
inactive: sotrastaurin 0.035 | filanesib 0.031 | alisertib 0.04 | [4] 0.088 | [5] 0.002 | lapatinib -0.256

DCBLD2 isoform 2 (UniProt Q96PD2)
inactive: saracatinib -0.033 | [6] 0 | idasanutlin 0.225

CXXC5 (UniProt Q7LFL8)
inactive: saracatinib 0.068 | [1] -0.136 | [6] 0.038

CXCL14 (UniProt O95715)
inactive: sotrastaurin 0.126 | [3] 0.2 | filanesib 0.075 | alisertib -0.308 | gefitinib -0.011 | [5] 0.23

CYREN isoform 4 (UniProt Q9BWK5)
inactive: saracatinib -0.135 | defactinib 0.014 | [6] -0.142 | [2] 0.016 | [3] 0.122 | idasanutlin 0.029 | alisertib 0.441 | [4] 0.517 | [5] 0.023 | lapatinib -0.039 | pictilisib 0

CSPG5 (UniProt O95196)
inactive: sotrastaurin 0.147 | [1] -0.143 | rucaparib 0.009 | encorafenib -0.198 | filanesib 0.042 | [4] 0.073 | lapatinib 0.07

CSRP2 (UniProt Q16527)
inactive: sotrastaurin 0.095 | alvocidib -0.099 | Tubastatin A -0.051 | defactinib 0.007 | [2] -0.03 | filanesib -0.035 | zotarolimus 0.1 | idasanutlin 0.037

CYP2R1 (UniProt Q6VVX0)
inactive: alvocidib -0.227 | Tubastatin A -0.025 | rucaparib 0.218 | encorafenib -0.121 | zotarolimus -0.055 | gefitinib -0.099

CUL7 isoform 2 (UniProt Q14999)
inactive: saracatinib -0.133 | Tubastatin A 0.046 | [1] 0.011 | [6] 0.133 | [4] 0.111 | gefitinib 0.386 | lapatinib -0.023 | pictilisib -0.206

CST4 (UniProt P01036)
inactive: sotrastaurin 0.27 | alvocidib -0.231 | defactinib 0.085 | [2] 0.014 | filanesib -0.063 | zotarolimus 0.052 | alisertib 0.04 | gefitinib 0.054 | [5] 0.156

DBNL (UniProt Q9UJU6)
inactive: zotarolimus -0.324

CYP24A1 (UniProt Q07973)
inactive: saracatinib -0.144 | Tubastatin A 0.365 | [1] -0.075 | defactinib 0.394 | rucaparib 0.115 | [6] 0.078 | encorafenib 0.075 | [2] 0.016 | [3] 0.1 | idasanutlin 0.039 | alisertib -0.095 | [4] 0.091 | gefitinib -0.044 | [5] -0.306 | lapatinib 0.067 | pictilisib -0.059

CTIF (UniProt O43310)
inactive: sotrastaurin 0.076 | alvocidib 0.093 | Tubastatin A 0.074 | defactinib 0.088 | [2] -0.391 | filanesib 0.171 | zotarolimus -0.167

CYTH2 (UniProt Q99418)
inactive: saracatinib -0.197 | Tubastatin A 0.393 | [1] -0.031 | [6] -0.143 | [3] 0.112 | idasanutlin -0.095 | alisertib -0.16 | [4] -0.077 | [5] 0.025 | lapatinib 0.173

CTDSP1 (UniProt Q9GZU7)
inactive: Tubastatin A 0.085 | [1] -0.018 | defactinib -0.092 | [2] -0.13 | gefitinib 0.062 | pictilisib -0.177
